Test results published in article PMC4726743.
Results are given in words; binding and its absence hold for the method and conditions named.

Biological target: Desmoplakin C-terminal region fragment spanning plakin repeat domains A and B (PRD-AB) (human) (UniProt P15924)
Assay: SEC; size exclusion chromatography of purified PRD-AB; the conditions of this run are not told (the purification used Superdex S200 in 25 mM Tris-Cl pH 8.0, 100 mM NaCl, 2 mM DTT); both purified

binding: no binding
B1: Desmoplakin C-terminal region fragment spanning plakin repeat domains A and B (PRD-AB) (domain or fragment, UniProt P15924 1960-2448)
chain: TVDTSKLVFDGLRKKVTAMQLYECQLIDKTTLDKLLKGKKSVEEVASEIQPFLRGAGSIAGASASPKEKYSLVEAKRKKLISPESTVMLLEAQAATGGIIDPHRNEKLTVDSAIARDLIDFDDRQQIYAAEKAITGFDDPFSGKTVSVSEAIKKNLIDRETGMRLLEAQIASGGVVDPVNSVFLPKDVALARGLIDRDLYRSLNDPRDSQKNFVDPVTKKKVSYVQLKERCRIEPHTGLLLLSVQKRSMSFQGIRQPVTVTELVDSGILRPSTVNELESGQISYDEVGERIKDFLQGSSCIAGIYNETTKQKLGIYEAMKIGLVRPGTALELLEAQAATGFIVDPVSNLRLPVEEAYKRGLVGIEFKEKLLSAERAVTGYNDPETGNIISLFQAMNKELIEKGHGIRLLEAQIATGGIIDPKESHRLPVDIAYKRGYFNEELSEILSDPSDDTKGFFDPNTEENLTYLQLKERCIKDEETGLCLLPLKE
